This is an account of results in article PMC10865846.

Amino acid sequences for entries named in this document (tags omitted).
UniProt Q8IYM9: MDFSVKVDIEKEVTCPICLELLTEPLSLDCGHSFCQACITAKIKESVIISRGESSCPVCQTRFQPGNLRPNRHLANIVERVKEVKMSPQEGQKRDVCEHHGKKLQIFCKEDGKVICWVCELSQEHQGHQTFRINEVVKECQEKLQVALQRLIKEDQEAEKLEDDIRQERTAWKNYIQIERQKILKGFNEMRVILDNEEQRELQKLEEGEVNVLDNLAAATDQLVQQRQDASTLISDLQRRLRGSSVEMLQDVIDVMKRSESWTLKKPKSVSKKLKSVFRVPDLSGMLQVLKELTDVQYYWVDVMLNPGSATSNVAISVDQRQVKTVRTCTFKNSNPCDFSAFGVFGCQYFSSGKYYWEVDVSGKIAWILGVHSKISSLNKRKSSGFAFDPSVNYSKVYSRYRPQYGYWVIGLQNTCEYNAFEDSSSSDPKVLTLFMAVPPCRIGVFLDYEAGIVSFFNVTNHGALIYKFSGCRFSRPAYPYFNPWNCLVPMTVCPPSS
UniProt Q9ULT8: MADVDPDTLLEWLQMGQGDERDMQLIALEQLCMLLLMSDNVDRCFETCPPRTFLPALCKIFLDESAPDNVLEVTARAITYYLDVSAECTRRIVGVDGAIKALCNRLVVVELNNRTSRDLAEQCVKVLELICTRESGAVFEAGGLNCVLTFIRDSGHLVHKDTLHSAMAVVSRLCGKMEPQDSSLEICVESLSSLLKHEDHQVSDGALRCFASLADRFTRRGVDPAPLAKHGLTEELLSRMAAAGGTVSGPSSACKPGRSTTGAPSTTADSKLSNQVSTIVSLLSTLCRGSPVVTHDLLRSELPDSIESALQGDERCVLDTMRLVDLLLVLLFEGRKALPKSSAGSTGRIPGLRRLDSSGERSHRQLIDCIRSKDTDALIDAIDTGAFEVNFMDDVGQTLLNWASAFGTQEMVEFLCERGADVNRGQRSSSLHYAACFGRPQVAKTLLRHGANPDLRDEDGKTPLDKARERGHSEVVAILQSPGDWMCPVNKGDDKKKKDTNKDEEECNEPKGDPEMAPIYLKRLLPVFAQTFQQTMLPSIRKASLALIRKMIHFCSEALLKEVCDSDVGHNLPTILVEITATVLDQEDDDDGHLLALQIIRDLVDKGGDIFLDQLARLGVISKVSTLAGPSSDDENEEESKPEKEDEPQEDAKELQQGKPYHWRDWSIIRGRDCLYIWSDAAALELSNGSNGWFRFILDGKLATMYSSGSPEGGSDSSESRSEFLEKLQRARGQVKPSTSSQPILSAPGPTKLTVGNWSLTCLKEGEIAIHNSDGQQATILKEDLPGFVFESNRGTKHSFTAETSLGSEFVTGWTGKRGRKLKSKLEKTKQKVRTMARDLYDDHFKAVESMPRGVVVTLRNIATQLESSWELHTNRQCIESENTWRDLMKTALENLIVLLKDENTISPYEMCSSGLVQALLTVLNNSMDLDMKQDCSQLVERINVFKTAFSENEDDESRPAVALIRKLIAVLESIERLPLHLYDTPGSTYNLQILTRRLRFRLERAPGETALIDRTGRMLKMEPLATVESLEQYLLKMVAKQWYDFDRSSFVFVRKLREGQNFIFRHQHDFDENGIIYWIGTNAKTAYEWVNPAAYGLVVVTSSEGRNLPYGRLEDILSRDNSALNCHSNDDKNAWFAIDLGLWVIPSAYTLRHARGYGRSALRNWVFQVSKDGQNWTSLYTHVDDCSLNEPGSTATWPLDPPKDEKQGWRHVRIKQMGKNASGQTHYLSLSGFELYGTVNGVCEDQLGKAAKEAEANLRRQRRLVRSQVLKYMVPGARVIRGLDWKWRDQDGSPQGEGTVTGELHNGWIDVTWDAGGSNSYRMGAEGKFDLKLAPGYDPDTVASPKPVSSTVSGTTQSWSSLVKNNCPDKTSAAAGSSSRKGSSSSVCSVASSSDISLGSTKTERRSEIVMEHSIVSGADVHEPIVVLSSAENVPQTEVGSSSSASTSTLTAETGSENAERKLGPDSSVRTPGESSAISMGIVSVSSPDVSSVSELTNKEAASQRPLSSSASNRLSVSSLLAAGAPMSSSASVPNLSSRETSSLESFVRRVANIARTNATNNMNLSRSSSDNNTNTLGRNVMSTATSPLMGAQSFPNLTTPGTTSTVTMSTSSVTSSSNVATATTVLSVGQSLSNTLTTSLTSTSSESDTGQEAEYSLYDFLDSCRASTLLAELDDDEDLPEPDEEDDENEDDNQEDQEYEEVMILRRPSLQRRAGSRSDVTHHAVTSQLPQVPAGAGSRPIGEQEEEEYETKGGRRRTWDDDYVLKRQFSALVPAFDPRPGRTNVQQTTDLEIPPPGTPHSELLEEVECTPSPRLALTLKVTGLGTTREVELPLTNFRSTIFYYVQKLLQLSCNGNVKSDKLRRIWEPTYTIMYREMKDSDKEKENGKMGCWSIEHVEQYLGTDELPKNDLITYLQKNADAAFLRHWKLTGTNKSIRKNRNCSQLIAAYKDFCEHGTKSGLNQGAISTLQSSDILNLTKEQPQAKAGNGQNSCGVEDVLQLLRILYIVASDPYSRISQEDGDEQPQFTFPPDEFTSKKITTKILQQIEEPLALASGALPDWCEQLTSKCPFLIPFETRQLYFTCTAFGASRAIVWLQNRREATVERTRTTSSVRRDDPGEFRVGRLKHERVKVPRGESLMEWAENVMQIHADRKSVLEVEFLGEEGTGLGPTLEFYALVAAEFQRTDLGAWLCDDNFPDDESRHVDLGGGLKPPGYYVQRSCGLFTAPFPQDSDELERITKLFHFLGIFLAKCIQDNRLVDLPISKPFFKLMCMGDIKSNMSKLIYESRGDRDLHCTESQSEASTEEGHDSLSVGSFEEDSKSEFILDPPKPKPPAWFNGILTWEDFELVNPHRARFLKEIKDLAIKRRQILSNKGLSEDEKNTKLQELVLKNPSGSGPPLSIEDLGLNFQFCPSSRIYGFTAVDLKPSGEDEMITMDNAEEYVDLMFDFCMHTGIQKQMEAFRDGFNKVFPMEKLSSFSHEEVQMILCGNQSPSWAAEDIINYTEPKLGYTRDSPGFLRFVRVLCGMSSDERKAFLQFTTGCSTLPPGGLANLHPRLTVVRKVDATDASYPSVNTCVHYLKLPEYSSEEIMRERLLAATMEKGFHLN

No constants are given. Whether binding was seen depends on the method and setting. Binding seen in cells or lysates may run through a third protein. Some binding calls cover weakened binding; strength is not graded here.

Experiment [1] concerns the target NSP8 from SARS-CoV (SARS-CoV) (UniProt P0C6X7). Description: co-IP.
Experiment [2] deals with Strep-NSP8 (SARS-CoV-2 non-structural protein 8) (SARS-CoV-2) (UniProt P0DTD1). Description: co-IP.

In the case of “TRIM22 in HEK-293T lysate (transfected or endogenous not told) (from UniProt Q8IYM9 1-498)”, the binding result in experiment [1] is “binds”. “HECT domain E3 ubiquitin protein ligase 1 (HECTD1), endogenous (from UniProt Q9ULT8 1-2610)”: the binding entry in experiment [2] is “binds”.
